Data as given in PubChem BioAssay AID1259308 (NCATS, 2017)

Aim: 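Knock-downs that increase output of a recombinant reporter protein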 (primary screen)
Cell system: human HEK293 embryonic kidney cells stably expressing firefly luciferase (HEK-CMV-Luc2-Hygro)
Reagent: single siRNA against human genes, 0.8 pmol siRNA per well
Duration: 72 h
Measurement: 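Luciferase light (ONE-Glo) measured on one replicate plate set and viability (CellTiter-Glo) on the other, scaled to a negative control siRNA, with robust z-scores and luciferase per cell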
Direction: total luciferase, z-score: higher = more reporter protein produced
Hit rule: 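Active when the median/MAD z-score for overall luciferase is greater than 3; a gene was taken forward for validation with new siRNAs if at least two of its three siRNAs passed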
Calls: active = raised luciferase; inactive = no rise
Here is a random part of about 59,000 reagents tested. About 1,510 of them (2.6%) count as active. 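Calls use total luciferase alone and ignore viability, so some active siRNAs may act by altering cell number.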 Reagents against one gene are numbered here. Not all columns of the deposit are shown. No sequences are given here.

How did the screen score MEIKIN (meiotic kinetochore factor) #1?
total luciferase, z-score: -0.446; Call: inactive

What is on record for MEIKIN (meiotic kinetochore factor) #2?
total luciferase, z-score: 0.342; Call: inactive

For MEIKIN (meiotic kinetochore factor) #3, what does the deposit list?
total luciferase, z-score: -0.276; Call: inactive

What is on record for SPATA31D5P (SPATA31 subfamily D member 5, pseudogene) #1?
total luciferase, z-score: 1.1; Call: inactive

Which result is listed for SPATA31D5P (SPATA31 subfamily D member 5, pseudogene) #2?
total luciferase, z-score: -1.61; Call: inactive

For SPATA31D5P (SPATA31 subfamily D member 5, pseudogene) #3, how do the results read?
total luciferase, z-score: 1.4; Call: inactive

In a second layout: entries from further up.
{"gene symbol":"SPATA31D5P (SPATA31 subfamily D member 5, pseudogene)","reagent no.":1,"total luciferase, z-score":1.1,"Call":"inactive"}
{"gene symbol":"SPATA31D5P (SPATA31 subfamily D member 5, pseudogene)","reagent no.":2,"total luciferase, z-score":-1.61,"Call":"inactive"}

Further results follow:
What is on record for GRN (granulin precursor) #1?
total luciferase, z-score: 0.0984; Call: inactive

With GRN (granulin precursor) #2, what was measured?
total luciferase, z-score: -0.919; Call: inactive

For GRN (granulin precursor) #3, what does the deposit list?
total luciferase, z-score: -1.95; Call: inactive

What did the screen give for ALS2 (alsin Rho guanine nucleotide exchange factor ALS2) #1?
total luciferase, z-score: 0.696; Call: inactive

For ALS2 (alsin Rho guanine nucleotide exchange factor ALS2) #2, what was measured?
total luciferase, z-score: -1.52; Call: inactive

With ALS2 (alsin Rho guanine nucleotide exchange factor ALS2) #3, what does the deposit list?
total luciferase, z-score: 0.499; Call: inactive
